# Results: the supplement of paper PMC11732987, “Enantioselective OTUD7B fragment discovery through chemoproteomics screening and high-throughput optimisation” (Communications Chemistry, 2025)
# The chains behind the UniProt entries cited, without tags or fusion partners. Where a name states a change or a piece, a line headed by the entry shows the natural chain unless it says otherwise. Residues count along the entry.
# UniProt O60293: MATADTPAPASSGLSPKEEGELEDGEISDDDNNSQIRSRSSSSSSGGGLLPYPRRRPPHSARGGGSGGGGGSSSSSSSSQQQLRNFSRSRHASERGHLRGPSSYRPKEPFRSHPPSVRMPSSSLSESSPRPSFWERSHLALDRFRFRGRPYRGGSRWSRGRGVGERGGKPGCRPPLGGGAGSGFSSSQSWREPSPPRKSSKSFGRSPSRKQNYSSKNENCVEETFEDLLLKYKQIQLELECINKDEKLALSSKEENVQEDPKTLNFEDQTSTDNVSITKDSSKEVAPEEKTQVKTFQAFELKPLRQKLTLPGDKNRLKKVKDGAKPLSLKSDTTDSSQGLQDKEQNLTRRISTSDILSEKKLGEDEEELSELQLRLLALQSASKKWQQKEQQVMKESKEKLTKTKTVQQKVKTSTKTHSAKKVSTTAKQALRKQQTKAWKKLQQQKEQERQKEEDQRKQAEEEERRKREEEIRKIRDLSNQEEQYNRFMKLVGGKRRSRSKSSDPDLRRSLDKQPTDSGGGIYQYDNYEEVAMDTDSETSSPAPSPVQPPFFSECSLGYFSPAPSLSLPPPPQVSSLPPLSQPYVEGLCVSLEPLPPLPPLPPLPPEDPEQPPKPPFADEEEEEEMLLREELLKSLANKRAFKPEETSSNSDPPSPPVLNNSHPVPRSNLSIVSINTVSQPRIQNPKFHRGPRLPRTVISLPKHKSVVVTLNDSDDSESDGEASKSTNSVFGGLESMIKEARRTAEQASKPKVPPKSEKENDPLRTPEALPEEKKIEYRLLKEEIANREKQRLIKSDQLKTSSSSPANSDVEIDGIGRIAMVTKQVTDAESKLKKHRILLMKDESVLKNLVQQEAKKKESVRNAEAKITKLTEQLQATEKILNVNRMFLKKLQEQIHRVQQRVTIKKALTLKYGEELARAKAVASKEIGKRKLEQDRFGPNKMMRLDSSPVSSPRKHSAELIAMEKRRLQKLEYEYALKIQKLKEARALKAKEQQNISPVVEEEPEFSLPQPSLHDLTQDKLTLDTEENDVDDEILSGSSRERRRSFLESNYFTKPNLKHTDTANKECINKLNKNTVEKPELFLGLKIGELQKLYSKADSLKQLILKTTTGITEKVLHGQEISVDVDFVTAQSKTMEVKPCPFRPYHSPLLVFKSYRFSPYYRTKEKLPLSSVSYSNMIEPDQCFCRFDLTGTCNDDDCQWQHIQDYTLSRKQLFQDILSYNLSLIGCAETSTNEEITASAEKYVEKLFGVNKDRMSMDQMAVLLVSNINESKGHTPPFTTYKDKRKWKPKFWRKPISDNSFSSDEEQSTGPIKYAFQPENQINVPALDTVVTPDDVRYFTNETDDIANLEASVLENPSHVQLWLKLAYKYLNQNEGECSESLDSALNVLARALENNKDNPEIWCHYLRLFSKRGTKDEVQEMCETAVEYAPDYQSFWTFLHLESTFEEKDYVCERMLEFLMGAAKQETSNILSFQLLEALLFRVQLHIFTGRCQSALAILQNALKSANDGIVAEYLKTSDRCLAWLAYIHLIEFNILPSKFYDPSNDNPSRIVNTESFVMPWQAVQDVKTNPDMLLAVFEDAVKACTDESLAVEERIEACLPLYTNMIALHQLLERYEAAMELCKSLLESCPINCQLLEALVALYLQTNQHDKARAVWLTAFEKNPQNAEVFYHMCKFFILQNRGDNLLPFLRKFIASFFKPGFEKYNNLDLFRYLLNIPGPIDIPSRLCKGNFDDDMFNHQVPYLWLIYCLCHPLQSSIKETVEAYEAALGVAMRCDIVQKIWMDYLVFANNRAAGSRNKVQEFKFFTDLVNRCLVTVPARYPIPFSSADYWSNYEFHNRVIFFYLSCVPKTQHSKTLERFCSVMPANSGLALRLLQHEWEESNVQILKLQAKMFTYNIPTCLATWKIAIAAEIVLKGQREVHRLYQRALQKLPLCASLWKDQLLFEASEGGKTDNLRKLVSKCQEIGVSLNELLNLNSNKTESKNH
# UniProt Q96H79: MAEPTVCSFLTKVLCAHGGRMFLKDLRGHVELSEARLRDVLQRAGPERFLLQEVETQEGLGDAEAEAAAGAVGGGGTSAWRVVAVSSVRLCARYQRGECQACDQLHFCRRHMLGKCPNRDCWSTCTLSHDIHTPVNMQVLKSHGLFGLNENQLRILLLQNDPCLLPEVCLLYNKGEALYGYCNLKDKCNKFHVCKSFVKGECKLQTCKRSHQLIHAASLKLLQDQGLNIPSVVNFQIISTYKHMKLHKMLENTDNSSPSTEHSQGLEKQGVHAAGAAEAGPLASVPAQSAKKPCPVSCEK
# UniProt Q86UK7, 404-439: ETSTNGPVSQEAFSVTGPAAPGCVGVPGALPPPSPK
# UniProt Q6NUN9: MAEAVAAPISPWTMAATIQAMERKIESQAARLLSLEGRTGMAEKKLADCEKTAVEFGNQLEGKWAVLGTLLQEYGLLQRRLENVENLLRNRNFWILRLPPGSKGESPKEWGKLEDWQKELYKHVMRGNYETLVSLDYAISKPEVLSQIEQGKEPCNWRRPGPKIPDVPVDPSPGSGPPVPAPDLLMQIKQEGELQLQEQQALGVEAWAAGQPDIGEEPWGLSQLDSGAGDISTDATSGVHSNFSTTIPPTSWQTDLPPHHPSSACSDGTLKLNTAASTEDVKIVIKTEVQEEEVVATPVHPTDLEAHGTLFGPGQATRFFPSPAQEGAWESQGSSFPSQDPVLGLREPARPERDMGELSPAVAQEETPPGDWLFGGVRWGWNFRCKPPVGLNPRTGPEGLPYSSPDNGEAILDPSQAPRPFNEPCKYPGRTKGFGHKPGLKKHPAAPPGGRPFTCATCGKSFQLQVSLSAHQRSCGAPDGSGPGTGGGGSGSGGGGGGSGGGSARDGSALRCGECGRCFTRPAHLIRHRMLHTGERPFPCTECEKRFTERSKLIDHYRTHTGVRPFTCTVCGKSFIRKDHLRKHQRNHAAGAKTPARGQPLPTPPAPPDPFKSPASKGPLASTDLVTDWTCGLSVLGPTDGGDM
# UniProt Q9C0G0: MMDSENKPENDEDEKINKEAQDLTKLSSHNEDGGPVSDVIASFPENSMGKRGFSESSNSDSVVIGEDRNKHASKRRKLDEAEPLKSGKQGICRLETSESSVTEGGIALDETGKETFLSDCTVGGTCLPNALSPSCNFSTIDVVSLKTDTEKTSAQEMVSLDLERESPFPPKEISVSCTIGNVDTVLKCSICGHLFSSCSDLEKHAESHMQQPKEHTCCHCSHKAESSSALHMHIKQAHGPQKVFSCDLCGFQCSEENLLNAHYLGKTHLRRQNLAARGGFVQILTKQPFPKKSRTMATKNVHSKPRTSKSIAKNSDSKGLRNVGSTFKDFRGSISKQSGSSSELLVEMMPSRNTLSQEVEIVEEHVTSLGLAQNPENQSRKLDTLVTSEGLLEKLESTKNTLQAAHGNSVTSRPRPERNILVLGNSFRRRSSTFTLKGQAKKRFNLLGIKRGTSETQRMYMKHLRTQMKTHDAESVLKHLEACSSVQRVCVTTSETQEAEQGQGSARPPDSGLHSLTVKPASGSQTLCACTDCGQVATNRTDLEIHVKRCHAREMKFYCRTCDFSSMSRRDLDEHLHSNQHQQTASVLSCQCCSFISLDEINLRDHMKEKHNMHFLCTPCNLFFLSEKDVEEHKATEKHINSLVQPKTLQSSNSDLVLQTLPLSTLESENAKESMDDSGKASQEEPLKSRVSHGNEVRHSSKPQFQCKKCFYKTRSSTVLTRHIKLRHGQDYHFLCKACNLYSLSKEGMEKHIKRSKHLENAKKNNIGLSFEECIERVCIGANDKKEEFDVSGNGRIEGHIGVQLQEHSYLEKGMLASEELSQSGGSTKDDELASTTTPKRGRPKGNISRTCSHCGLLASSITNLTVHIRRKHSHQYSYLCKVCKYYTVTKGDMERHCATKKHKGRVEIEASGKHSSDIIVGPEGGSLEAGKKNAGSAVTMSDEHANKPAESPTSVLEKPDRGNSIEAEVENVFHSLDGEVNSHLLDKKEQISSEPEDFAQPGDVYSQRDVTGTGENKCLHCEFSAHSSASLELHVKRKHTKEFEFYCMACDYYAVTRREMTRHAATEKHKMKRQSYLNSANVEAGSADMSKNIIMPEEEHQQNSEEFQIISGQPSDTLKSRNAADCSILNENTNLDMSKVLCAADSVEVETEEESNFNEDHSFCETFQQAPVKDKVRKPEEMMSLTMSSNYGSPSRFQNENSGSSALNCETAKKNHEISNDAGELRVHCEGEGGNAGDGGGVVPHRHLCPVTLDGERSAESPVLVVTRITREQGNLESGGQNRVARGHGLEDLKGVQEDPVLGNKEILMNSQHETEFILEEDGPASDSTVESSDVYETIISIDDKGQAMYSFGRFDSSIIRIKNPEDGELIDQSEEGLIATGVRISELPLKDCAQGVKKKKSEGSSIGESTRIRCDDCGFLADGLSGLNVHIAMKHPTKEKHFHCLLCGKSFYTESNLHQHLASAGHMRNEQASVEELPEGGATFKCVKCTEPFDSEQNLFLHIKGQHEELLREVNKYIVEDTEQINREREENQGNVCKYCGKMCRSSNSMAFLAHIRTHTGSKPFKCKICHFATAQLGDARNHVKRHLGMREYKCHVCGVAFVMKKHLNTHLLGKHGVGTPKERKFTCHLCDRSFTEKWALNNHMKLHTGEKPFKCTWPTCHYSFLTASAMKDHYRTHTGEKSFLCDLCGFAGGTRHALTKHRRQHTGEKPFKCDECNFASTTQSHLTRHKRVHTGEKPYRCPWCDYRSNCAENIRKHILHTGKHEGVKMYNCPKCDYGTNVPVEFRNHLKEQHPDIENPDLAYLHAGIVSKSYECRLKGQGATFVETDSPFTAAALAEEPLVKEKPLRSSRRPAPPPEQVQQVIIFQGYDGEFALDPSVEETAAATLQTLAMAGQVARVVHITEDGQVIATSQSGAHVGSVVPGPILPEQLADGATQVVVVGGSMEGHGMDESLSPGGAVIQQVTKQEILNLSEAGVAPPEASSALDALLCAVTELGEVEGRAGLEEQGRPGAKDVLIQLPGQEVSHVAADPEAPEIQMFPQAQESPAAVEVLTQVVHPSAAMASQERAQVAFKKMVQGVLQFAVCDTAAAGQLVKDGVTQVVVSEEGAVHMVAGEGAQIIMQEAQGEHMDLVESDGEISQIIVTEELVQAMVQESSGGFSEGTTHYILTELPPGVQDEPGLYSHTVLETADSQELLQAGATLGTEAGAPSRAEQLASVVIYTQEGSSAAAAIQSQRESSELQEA
# UniProt Q16670: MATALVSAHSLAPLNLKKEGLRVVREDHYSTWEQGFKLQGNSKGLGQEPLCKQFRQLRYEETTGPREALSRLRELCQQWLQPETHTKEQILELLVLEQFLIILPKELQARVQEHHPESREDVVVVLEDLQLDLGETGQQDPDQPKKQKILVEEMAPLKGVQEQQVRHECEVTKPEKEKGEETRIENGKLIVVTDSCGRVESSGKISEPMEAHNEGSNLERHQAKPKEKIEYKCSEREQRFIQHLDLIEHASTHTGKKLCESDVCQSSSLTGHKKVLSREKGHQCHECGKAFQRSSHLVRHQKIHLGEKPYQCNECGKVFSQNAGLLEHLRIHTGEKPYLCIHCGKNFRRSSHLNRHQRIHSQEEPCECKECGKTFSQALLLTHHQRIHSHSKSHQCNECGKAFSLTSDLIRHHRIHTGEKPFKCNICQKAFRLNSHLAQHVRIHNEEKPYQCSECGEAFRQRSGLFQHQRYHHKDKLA
# UniProt O76080: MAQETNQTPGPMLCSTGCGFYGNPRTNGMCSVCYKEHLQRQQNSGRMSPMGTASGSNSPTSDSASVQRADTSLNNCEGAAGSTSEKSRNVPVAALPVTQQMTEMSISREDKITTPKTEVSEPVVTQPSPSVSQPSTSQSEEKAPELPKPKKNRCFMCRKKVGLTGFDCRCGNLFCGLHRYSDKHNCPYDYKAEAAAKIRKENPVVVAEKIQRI
# UniProt Q9NWK9: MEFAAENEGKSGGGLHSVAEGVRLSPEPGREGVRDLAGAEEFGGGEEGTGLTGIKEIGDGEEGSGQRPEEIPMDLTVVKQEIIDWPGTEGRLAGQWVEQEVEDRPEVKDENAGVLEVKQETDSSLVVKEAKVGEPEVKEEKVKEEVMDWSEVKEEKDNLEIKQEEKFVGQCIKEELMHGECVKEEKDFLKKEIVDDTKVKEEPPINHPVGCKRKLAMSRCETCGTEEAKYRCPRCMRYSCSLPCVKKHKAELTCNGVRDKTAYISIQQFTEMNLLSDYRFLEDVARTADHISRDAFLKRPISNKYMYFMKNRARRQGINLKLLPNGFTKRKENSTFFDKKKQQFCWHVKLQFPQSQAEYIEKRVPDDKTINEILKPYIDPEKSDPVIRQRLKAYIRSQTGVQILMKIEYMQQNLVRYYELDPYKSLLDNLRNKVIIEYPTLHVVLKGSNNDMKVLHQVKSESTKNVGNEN
# Some of the results follow. The data scatter; read single values as rough.
# Compound: ClCC(=O)N[C@@H]1CCCc2ccccc12
# Experiment: log2 mean competition ratio of IA-DTB cysteine labelling (DMSO/compound) (log2 ratio); higher = stronger cysteine engagement by compound
# Details: 50 µM; treatment time: 4 h; cell line lysate: HEK293T
# Experimental: (§1)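 IA-DTB competitive cysteine chemoproteomics in HEK293T RIPA lysate. Lysates were treated with compound 29 or 30 at 50 or 200 µM for 4 h, then IA-DTB (500 µM, 1 h), trypsin-digested, NeutrAvidin-enriched and analysed by diaPASEF. Competition ratio = intensity DMSO / intensity compound (n=4 treated, n=64 DMSO); binding: mean log2 CR ≥ 1 and p ≤ 0.05 plus QC filters. Target is the cysteine site.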
row,Target,log2 mean competition ratio
1,ZFC3H1 C241 (UniProt O60293),-0.449
2,ZNF609 C1290 (UniProt O15014),-0.0199
3,ZNF709 C403(C459)(C515),0.846
4,ZNF507 C86 (UniProt Q8TCN5),-0.184
5,ZNF185 C615,0.519
6,ZNF592 C265 (UniProt Q92610),-0.214
7,ZMAT3 C107,0.324
8,ZC3HAV1L C182 (UniProt Q96H79),0.115
9,ZDBF2 C162,-0.0141
10,ZNF598 C426 (UniProt Q86UK7),-0.321
11,ZNF805 C168,-0.531
12,ZW10 C346 (UniProt O43264),0.35
13,ZNF777 C602,-0.225
14,ZNF746 C385 (UniProt Q6NUN9),0.23
15,ZFPL1 C56 (UniProt O95159),-0.0983
16,ZKSCAN2 C109,-0.647
17,ZNF407 C1394 (UniProt Q9C0G0),-0.363
18,ZNF106 C643 (UniProt Q9H2Y7),-0.158
19,ZW10 C39 (UniProt O43264),-0.245

row,Target,log2 mean competition ratio
1,ZSCAN26 C169 (UniProt Q16670),0.14
2,ZDHHC5 C245 (UniProt Q9C0B5),0.0247
3,ZNF507 C745 (UniProt Q8TCN5),-0.159
4,ZFAND5 C168 (UniProt O76080),0.0286
5,ZNF776 C238,-0.127
6,ZNF239 C167 (UniProt Q16600),-0.0907
7,ZNF280C C94 (UniProt Q8ND82),0.0933
8,ZC3HAV1L C15 (UniProt Q96H79),0.305
9,"ZC3HAV1_(C513,C513,C518,C518) (UniProt Q7Z2W4)",-0.0366
10,ZNHIT6 C254 (UniProt Q9NWK9),-0.139
11,ZC3HAV1 C645 (UniProt Q7Z2W4),-0.327
12,"ZNF654 C732, A0A1B0GWA0",0.0781
13,ZNF646 C150 (UniProt O15015),-0.27
14,ZNF451 C441 (UniProt Q9Y4E5),-0.301
15,ZNF805 C185,-0.066
16,ZER1 C113 (UniProt Q7Z7L7),-0.0411
17,ZNF512B C533 (UniProt Q96KM6),-0.273
18,ZNF217 C641 (UniProt O75362),-0.0595

# Same assay, conditions: 200 µM; treatment time: 4 h; cell line lysate: HEK293T
row,Target,log2 mean competition ratio
1,ZFC3H1 C241 (UniProt O60293),0.18
2,ZNF609 C1290 (UniProt O15014),0.0939
3,ZNF709 C403(C459)(C515),1.68
4,ZNF507 C86 (UniProt Q8TCN5),0.271
5,ZNF185 C615,-0.298
6,ZNF592 C265 (UniProt Q92610),-0.0508
7,ZMAT3 C107,0.125
8,ZC3HAV1L C182 (UniProt Q96H79),-0.402
9,ZDBF2 C162,0.0634
10,ZNF598 C426 (UniProt Q86UK7),0.0118
11,ZNF805 C168,0.162
12,ZW10 C346 (UniProt O43264),0.0278
13,ZNF777 C602,-0.0779
14,ZNF746 C385 (UniProt Q6NUN9),-0.1
15,ZFPL1 C56 (UniProt O95159),-0.000818
16,ZKSCAN2 C109,-0.141
17,ZNF407 C1394 (UniProt Q9C0G0),-0.191
18,ZNF106 C643 (UniProt Q9H2Y7),-0.0661
19,ZW10 C39 (UniProt O43264),0.171

row,Target,log2 mean competition ratio
1,ZSCAN26 C169 (UniProt Q16670),0.15
2,ZDHHC5 C245 (UniProt Q9C0B5),0.186
3,ZNF507 C745 (UniProt Q8TCN5),0.0723
4,ZFAND5 C168 (UniProt O76080),0.0731
5,ZNF776 C238,0.335
6,ZNF239 C167 (UniProt Q16600),-0.116
7,ZNF280C C94 (UniProt Q8ND82),0.152
8,ZC3HAV1L C15 (UniProt Q96H79),-0.394
9,"ZC3HAV1_(C513,C513,C518,C518) (UniProt Q7Z2W4)",-0.22
10,ZNHIT6 C254 (UniProt Q9NWK9),-0.405
11,ZC3HAV1 C645 (UniProt Q7Z2W4),0.183
12,"ZNF654 C732, A0A1B0GWA0",-0.191
13,ZNF646 C150 (UniProt O15015),-0.0688
14,ZNF451 C441 (UniProt Q9Y4E5),-0.299
15,ZNF805 C185,-0.509
16,ZER1 C113 (UniProt Q7Z7L7),0.114
17,ZNF512B C533 (UniProt Q96KM6),-0.255
18,ZNF217 C641 (UniProt O75362),0.17

# Compound: ClCC(=O)N[C@H]1CCCc2ccccc12
# Experiment: as above
# Details: 50 µM; treatment time: 4 h; cell line lysate: HEK293T
# Experimental: as §1
row,Target,log2 mean competition ratio
1,ZFC3H1 C241 (UniProt O60293),-0.421
2,ZNF609 C1290 (UniProt O15014),0.161
3,ZNF709 C403(C459)(C515),0.392
4,ZNF507 C86 (UniProt Q8TCN5),-0.409
5,ZNF185 C615,0.126
6,ZNF592 C265 (UniProt Q92610),0.316
7,ZMAT3 C107,0.672
8,ZC3HAV1L C182 (UniProt Q96H79),0.125
9,ZDBF2 C162,0.143
10,ZNF598 C426 (UniProt Q86UK7),-0.693
11,ZNF805 C168,-0.31
12,ZW10 C346 (UniProt O43264),0.539
13,ZNF777 C602,-0.207
14,ZNF746 C385 (UniProt Q6NUN9),-0.0987
15,ZFPL1 C56 (UniProt O95159),0.235
16,ZKSCAN2 C109,-0.474
17,ZNF407 C1394 (UniProt Q9C0G0),-0.0382
18,ZNF106 C643 (UniProt Q9H2Y7),0.334
19,ZW10 C39 (UniProt O43264),-0.76

row,Target,log2 mean competition ratio
1,ZSCAN26 C169 (UniProt Q16670),0.194
2,ZDHHC5 C245 (UniProt Q9C0B5),0.116
3,ZNF507 C745 (UniProt Q8TCN5),-0.0682
4,ZFAND5 C168 (UniProt O76080),0.125
5,ZNF776 C238,-0.152
6,ZNF239 C167 (UniProt Q16600),0.0271
7,ZNF280C C94 (UniProt Q8ND82),-0.266
8,ZC3HAV1L C15 (UniProt Q96H79),0.224
9,"ZC3HAV1_(C513,C513,C518,C518) (UniProt Q7Z2W4)",-0.289
10,ZNHIT6 C254 (UniProt Q9NWK9),-0.00959
11,ZC3HAV1 C645 (UniProt Q7Z2W4),-0.126
12,"ZNF654 C732, A0A1B0GWA0",-0.0801
13,ZNF646 C150 (UniProt O15015),-0.354
14,ZNF451 C441 (UniProt Q9Y4E5),0.0793
15,ZNF805 C185,-0.228
16,ZER1 C113 (UniProt Q7Z7L7),-0.362
17,ZNF512B C533 (UniProt Q96KM6),-0.27
18,ZNF217 C641 (UniProt O75362),-0.118
